The list shows a part of the results. Some of these compounds have results that are not shown, active ones among them.
Assay: NTR1-driven beta-arrestin-GFP spot formation – imaging, U2OS cells, high content, primary screen (AID 493036) (AID 493036)
Details: agonist mode, measured here: cell count, cytotoxicity flag, at 20 µM
O=C(OC1CN2CCC1CC2)C(CO)(c1ccccc1)c1ccccc1 (centres undefined) showed a cell count of 38 cells.
COc1ccc(Br)c(C(=O)NCC2(N3CCCCC3)CCCCC2)c1 gave a cell count of 69 cells.
Molecule CN(C)c1cccc(C(=O)NCC2(N(C)C)CCCCC2)c1 has a cell count of 41 cells.
Molecule CC(C)Oc1ccc(C(=O)NCC2(N(C)C)CCCCC2)cc1 has a cell count of 74 cells.
With CN(C)C1(CNC(=O)c2ccc(Br)cc2)CCCCC1 the cell count was 88 cells.
Work on COc1cc(C(=O)NCC2(N(C)C)CCCCC2)c([N+](=O)[O-])cc1OC yielded a cell count of 91 cells.
With COc1ccc(Cl)cc1C(=O)NCC1(N(C)C)CCCCC1 the cell count was 94 cells.
COc1cccc(C(=O)NCC2(N3CCCCC3)CCCCC2)c1 showed a cell count of 60 cells.
In the case of O=C(NCC1(N2CCCCC2)CCCCC1)c1cccc(Cl)c1, the cell count is reported as 57 cells.
Work on CN(C)c1ccc(C(=O)NCC2(N(C)C)CCCCC2)cc1 yielded a cell count of 44 cells.
Work on CN(C)C1CCCC1OC(=O)C(O)(c1ccccc1)c1ccccc1 (centres undefined) yielded a cell count of 50 cells.
In the case of Cc1ccccc1C(=O)NCC1(N2CCCCC2)CCCCC1, the cell count is reported as 43 cells.
Work on O=C(NCC1(N2CCCCC2)CCCCC1)c1cc(F)c(F)cc1Cl yielded a cell count of 54 cells.
In the case of C=CCN1CCN(CCOC(=O)C(O)(c2ccccc2)c2ccccc2)CC1, the cell count is reported as 50 cells.
Work on O=C(NCC1(N2CCCCC2)CCCCC1)c1cccc(Br)c1 yielded a cell count of 36 cells.
With CCN1CCCC(OC(=O)C2(O)c3ccccc3C=Cc3ccccc32)C1 (centres undefined) the cell count was 67 cells.
Work on Cc1cc(C(=O)NCC2(N3CCCCC3)CCCCC2)ccc1[N+](=O)[O-] yielded a cell count of 52 cells.
In the case of COc1ccc(C(=O)NCC2(N(C)C)CCCCC2)cc1, the cell count is reported as 49 cells.
Work on O=C(NCC1(N2CCCCC2)CCCCC1)c1cc([N+](=O)[O-])ccc1Cl yielded a cell count of 52 cells.
With CN1[C@@H]2CC[C@H]1CC(OC(=O)C(O)(c1ccccc1)c1ccccc1)C2 (some centres undefined) the cell count was 59 cells.
CC(C)N1C(=O)CC2(CCN(CCOC(=O)C(O)(c3ccccc3)c3ccccc3)CC2)C1=O gave a cell count of 39 cells.
In the case of COc1cc(SC)ccc1C(=O)NCC1(N(C)C)CCCCC1, the cell count is reported as 90 cells.
Work on CCN(CC)CC(C)C(C)OC(=O)C(O)(c1ccccc1)c1ccccc1 (centres undefined) yielded a cell count of 55 cells.
Molecule Cc1ccc(C(=O)NCC2(N3CCCCC3)CCCCC2)cc1 has a cell count of 56 cells.

Reference: PubChem BioAssay AID493036 (Sanford-Burnham Center for Chemical Genomics, 2011)
